Results on 2 molecules are retold here after doi:10.1101/2024.08.28.609967 (bioRxiv, 2024).

By UniProt entry, the sequences of proteins in these tests, tags left out. Where a name states a change or a piece, a line headed by the entry shows the natural chain unless it says otherwise. Chains listed by the source or under a name are the forms on record and can include a tag or linker. Residues count along the entry.
UniProt Q9BXK5: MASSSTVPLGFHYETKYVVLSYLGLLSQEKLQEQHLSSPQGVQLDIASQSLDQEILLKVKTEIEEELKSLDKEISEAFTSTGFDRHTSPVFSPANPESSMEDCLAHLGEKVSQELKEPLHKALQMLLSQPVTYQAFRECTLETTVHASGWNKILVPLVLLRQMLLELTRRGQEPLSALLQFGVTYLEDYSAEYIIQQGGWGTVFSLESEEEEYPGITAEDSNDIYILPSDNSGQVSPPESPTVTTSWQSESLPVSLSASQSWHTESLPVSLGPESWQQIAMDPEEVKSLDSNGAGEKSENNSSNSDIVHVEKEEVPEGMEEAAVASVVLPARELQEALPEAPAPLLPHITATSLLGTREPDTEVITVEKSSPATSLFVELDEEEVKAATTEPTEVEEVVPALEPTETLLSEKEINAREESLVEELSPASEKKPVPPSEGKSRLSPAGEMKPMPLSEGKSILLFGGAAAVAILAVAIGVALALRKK
GFP-FIP200 C-terminal region (CTR) (residues 1429–1591) (Q8TDY2-2, form named): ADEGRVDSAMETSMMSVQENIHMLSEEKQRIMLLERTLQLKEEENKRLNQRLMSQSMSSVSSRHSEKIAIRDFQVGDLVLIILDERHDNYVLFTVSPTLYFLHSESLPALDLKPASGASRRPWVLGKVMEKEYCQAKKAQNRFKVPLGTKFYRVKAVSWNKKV

Test [1] has as its target BCL2L13-GST with mutated LIR/FIR motifs (human) (UniProt Q9BXK5). The experiment in a line: microscopy-based bead assay; glutathione beads coated with GST-tagged cargo receptors (5 uM), GFP-FIP200 CTR (1429-1591) as prey, 30 min; 25 mM Tris-HCl pH 7.4, 150 mM NaCl, 1 mM DTT; confocal imaging; both purified.
The target of test [2] is BNIP3(1–158aa)-GST (human). Briefly: pull-down; beads coated with GST, NIX-GST or BNIP3-GST, incubated overnight with HeLa cell lysate; SDS-PAGE and western blot for WIPI proteins; only the target purified. (In general: In western blotting, separated proteins are transferred to a membrane and probed.)

These are yes or no findings as the source states them, for the method shown. For some assays here: In cells and extracts the contact can be indirect. For some assays here: Binding calls can cover weak binding; strength is not graded here.

As for “GFP-FIP200 C-terminal region (CTR) (residues 1429–1591) (from UniProt Q8TDY2-2 1429-1591) (domain or fragment)”, in test [1], the binding result is “no binding”.

B1: WIPI2 (endogenous, HeLa) (protein, UniProt Q9Y4P8 1-454)
chain: MNLASQSGEAGAGQLLFANFNQDNTEVKGASRAAGLGRRAVVWSLAVGSKSGYKFFSLSSVDKLEQIYECTDTEDVCIVERLFSSSLVAIVSLKAPRKLKVCHFKKGTEICNYSYSNTILAVKLNRQRLIVCLEESLYIHNIRDMKVLHTIRETPPNPAGLCALSINNDNCYLAYPGSATIGEVQVFDTINLRAANMIPAHDSPLAALAFDASGTKLATASEKGTVIRVFSIPEGQKLFEFRRGVKRCVSICSLAFSMDGMFLSASSNTETVHIFKLETVKEKPPEEPTTWTGYFGKVLMASTSYLPSQVTEMFNQGRAFATVRLPFCGHKNICSLATIQKIPRLLVGAADGYLYMYNLDPQEGGECALMKQHRLDGSLETTNEILDSASHDCPLVTQTYGAAAGKGTYVPSSPTRLAYTDDLGAVGGACLEDEASALRLDEDSEHPPMILRTD
As to B1, the binding entry in test [2] is “binds”.
